The list shows a part of the results. These are further read-outs of the screen, such as a control signal, another cell line or another target. No call is given for them. The list favours compounds with an active or inconclusive main result. Potencies come from curve fits of mixed quality, noted in brackets.
Test: qHTS Assay for Modulators of Lamin A Splicing
Details: HeLa LMNA splicing GFP/RFP minigene ratio, 48 h
Method in brief: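 Read-out is the ratio of GFP to DsRed2 object intensity, acquired by 488 nm laser-scanning cytometry on HeLa lamin A-EGFP minigene reporter cells. Compound incubation 48 hrs at 37 °C in Opti-MEM with 2% FBS; DMSO 0.5% final.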

[1] = measured here: GFP splicing reporter channel
[2] = measured here: RFP viability control channel

Row | SMILES | AC50 [1] | AC50 [2]
1 | CN1/C(=C\C(=O)CSc2nnc(N)s2)C(C)(C)c2ccccc21 | 8.91 µM [rising, partial curve] | 15.8 µM [rising, partial curve]
2 | CN1CCN(C(=O)CCc2ncc(C(F)(F)F)cc2Cl)CC1 | 0.891 µM [rising, single point] | 
3 | Cc1cc2cc3c(N)[nH]nc3nc2cc1C | 5.62 µM [rising, single point] | 
4 | COc1ccc(CNC(=O)CN2C(=O)NC3(CCCCCC3)C2=O)cc1OC | 0.0224 µM [falling, full curve, poor fit] | 0.0562 µM [falling, full curve, poor fit]
5 | CCCN1C[C@H](CSC)C[C@H]2c3cccc4[nH]cc(c34)C[C@@H]21 | 12.6 µM [falling, single point] | 14.1 µM [falling, single point]
6 | Fc1cccc(F)c1-c1nc(-c2ccncc2)no1 | 35.5 µM [rising, single point] | 35.5 µM [rising, single point]
7 | CCOC(=O)C1=C(O)CSC1=Nc1ccc(C)cc1 |  | 0.00708 µM [falling, full curve, poor fit]
8 | COc1c(Cl)cc(Cl)cc1/C=C(\C#N)c1nc2ccccc2[nH]1 | 2.51 µM [rising, full curve, poor fit] | 
9 | Fc1ccc(-n2cc(CNCCc3ccncc3)c(-c3ccccc3Cl)n2)cc1 | 6.31 µM [falling, full curve, poor fit] | 
10 | COc1ccccc1N(C(=O)CN1C(=O)c2ccccc2S1(=O)=O)C(C(=O)NCC1CCCO1)c1ccc(F)cc1 (centres undefined) | 31.6 µM [rising, single point] | 31.6 µM [rising, single point]
11 | c1ccc(Nc2ncnc3ccc(-c4cccnc4)cc23)cc1 | 20 µM [falling, single point] | 12.6 µM [falling, single point]
12 | CCOC(=O)C(=Cc1ccc(OCc2ccc([N+](=O)[O-])cc2)c(OC)c1)C(=O)OCC | 4.47 µM [falling, full curve] | 7.08 µM [falling, partial curve]
13 | O=S(=O)(/C(=C/c1ccc(C(F)(F)F)cc1)c1nc2ccccc2[nH]1)c1ccccc1 | 31.6 µM [falling, single point] | 5.62 µM [falling, single point]
14 | Cc1nc(-c2ccc(Cl)cc2)sc1CCNC(=O)c1ccco1 |  | 15.8 µM [falling, partial curve, poor fit]
15 | Cc1ccc2nc(SCC(=O)c3ccc(O)cc3O)[nH]c2c1 | 0.0126 µM [rising, full curve, poor fit] | 
16 | CN(C)c1ccc(-c2n[nH]c(=S)n2-c2ccccc2)cc1 | 35.5 µM [rising, single point] | 
17 | Cc1ccccc1C(=O)N1CCN(c2ccc(NC(=O)c3ccc4c(c3)OCO4)cc2)CC1 | 0.2 µM [rising, partial curve] | 0.447 µM [rising, full curve]
18 | CCCCOc1ccc(C(=O)NCC2(N3CCN(C)CC3)CCCCC2)cc1 | 5.01 µM [rising, single point] | 

Row | SMILES | AC50 [1] | AC50 [2]
19 | O=C(N/N=C/c1ccccn1)c1ccccc1 |  | 17.8 µM [rising, partial curve, poor fit]
20 | CCOC(=O)C1CCN(c2nc(-c3ccc(Br)cc3)nc3ccccc23)CC1 | 0.447 µM [falling, full curve, poor fit] | 
21 | COc1ccc(OC)c(NC(=O)c2cn3c4c(ccc(Cl)c4c2=O)OC(C)C3)c1 (centres undefined) |  | 0.0708 µM [falling, partial curve]
22 | CSCC(=O)N1CCCC(C(=O)c2cc(F)ccc2F)C1 (centres undefined) | 0.0224 µM [rising, full curve, poor fit] | 
23 | Cc1cc(C)c(C(=O)/C=C/c2ccc(C(C)C)cc2)c(=O)[nH]1 | 10 µM [falling, partial curve] | 12.6 µM [falling, partial curve]
24 | N#C/C(C(=O)NCc1ccccc1)=C1\SC(CCO)C(=O)N1c1ccccc1 (centres undefined) | 5.62 µM [rising, partial curve] | 0.398 µM [rising, full curve, poor fit]
25 | COc1ccccc1N1CCN(Cc2cc(=O)n3ccsc3n2)CC1 | 20 µM [falling, single point] | 35.5 µM [falling, single point]
26 | CCOC(=O)C1CCN(C(=O)c2ccc3c(c2)sc2nc(-c4ccccc4)cn23)CC1 | 4.47 µM [falling, full curve, poor fit] | 
27 | C=CCSc1nnc(CNC(=O)c2ccc(Cl)cc2)n1CC |  | 35.5 µM [rising, partial curve, poor fit]
28 | CCCCNC(=O)c1ccc(N2CCC3(CC2)OCCO3)c([N+](=O)[O-])c1 |  | 0.0794 µM [rising, full curve, poor fit]
29 | O=C(NCCCn1ccnc1)/C(=C\c1cccnc1)NC(=O)c1ccccc1F | 0.0316 µM [rising, full curve, poor fit] | 
30 | CCn1c(SCC(=O)NCc2ccc3c(c2)OCO3)nnc1-c1ccncc1 |  | 5.62 µM [rising, single point]
31 | O=C(CCCCCNC(=O)c1ccccc1Cl)N/N=C/c1ccco1 | 0.158 µM [rising, full curve, poor fit] | 0.158 µM [rising, full curve, poor fit]
32 | C(=N\c1nc2ccccc2n1Cc1ccccc1)/c1cccs1 |  | 25.1 µM [rising, single point]
33 | O=C(Cn1nnc(-c2cccc(C(F)(F)F)c2)n1)N1CCOCC1 |  | 35.5 µM [rising, single point]
34 | Cn1nc(C(=O)N2CCN(c3cccc(Cl)c3)CC2)c2c1-c1ccccc1S(=O)(=O)C2 | 4.47 µM [rising, partial curve] | 
35 | Cc1cc(C(=O)NNc2ccc(Cl)cc2)no1 | 0.0891 µM [rising, full curve] | 0.0562 µM [rising, partial curve, poor fit]

Gathered by group: the entries above with a nitro group on carbon (2)
Row | SMILES | AC50 [1] | AC50 [2]
12 | CCOC(=O)C(=Cc1ccc(OCc2ccc([N+](=O)[O-])cc2)c(OC)c1)C(=O)OCC | 4.47 µM [falling, full curve] | 7.08 µM [falling, partial curve]
28 | CCCCNC(=O)c1ccc(N2CCC3(CC2)OCCO3)c([N+](=O)[O-])c1 |  | 0.0794 µM [rising, full curve, poor fit]

Source: PubChem BioAssay AID1487 (National Center for Advancing Translational Sciences (NCATS), 2009)
